From the supplement of paper PMC10338343
± gives the standard deviation. This is a selection; strong and weak results do not stand in their true shares. The uncertainty is large for many entries.

System: EfPiwi piRISC loaded with piRNA #1 (26 nt)
Experiment: pre-steady-state target cleavage rate (min^-1); guide: piRNA #1 5'p-UGAGGUAGUAGGUUGUAUAGUAUCCA; MIWI and MILI are mouse PIWI proteins and EfPiwi is from a freshwater sponge; tags in brackets are library labels; higher = faster piRNA-guided slicing of the target
Conditions: auxiliary factor: 500 nM Ephydatia muelleri Gtsf1
Procedure, shortened: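 Sequencing of uncleaved targets, normalised to depth and to weakly complementary targets, was the readout of this Cleave-'n-Seq assay. A transcribed, DNA-blocked target RNA library (0.1 nM) was mixed with 1 nM active affinity-purified piRISC carrying one synthetic guide, with or without 500 nM GTSF1 partner protein, in HEPES–potassium acetate buffer at 33 °C for 0–8 or 0–960 min. Three trials were pooled, k3 was capped at 0.0001 min^-1, and a burst-and-steady-state fit gave the pre-steady-state cleavage rate.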

Row | Sequence | pre-steady-state target cleavage rate
1 | GGAGACCUAACUAUACAUCCUACUACGUCA | 0.00262 ± 0.0033
2 | GGAGUGGAAACUAUACAACCAACUACCUCA | 0.0049 ± 0.0032
3 | GGAGAGGAUACUAUAUCAACCUACUACCUCA | 0.0145 ± 0.0066
4 | GGAGACCUAUCUAUACAACCUACUUGGAGA [g7:g20:cont:t1A] | 0.00211 ± 0.005
5 | GGAGACGAUACUAUACAACCUUCUUCCUCA | 0.0037 ± 0.0019
6 | GGAGACCUUACUAUACAACCUACUACUCUCA | 0.0031 ± 0.0038
7 | GGAGUGGAUACUAUACAACCUUACUACCUCA | 0.00695 ± 0.0034
8 | GGAGAGGAUACUAUACAACCUACUACUUCA | 0.121 ± 0.05
9 | GGAGUGGAAACUAUACAACCUACUACGUCA | 0.00326 ± 0.0026
10 | GGAGACCUUACUAUAUCAACCUACUACCUCA | 0.00321 ± 0.0042
11 | GGAGACCUUACUAUACAACCAACUACCACA | 0.00335 ± 0.005
12 | GGAGUGGAUACUAUUCAACCUACUACCACA | 0.00327 ± 0.0022
13 | GGAGACGAUACAAUACAACGUACUACCUCA | 0.00285 ± 0.0031
14 | GGAGACCUAUCUAUUCAACCUACUACGUCA | 0.000925 ± 0.0053
15 | GGAGACCUAACUAUACAACCAACUACGUCA | 0.00371 ± 0.0045
16 | GGAGUGGAAACUAUACAACCUACUUCCUCA | 0.00164 ± 0.0032
17 | GGAGAGGAUACUAUACAACCAUCUACCUCA | 0.0052 ± 0.002
18 | GGAGACGAUACAUAUACAACCUACUACCUCA | 0.00804 ± 0.0033
19 | GGAGACCUAUGUAUAGAACCUACUACCUGA | 0.000649 ± 0.0092
20 | GGAGACCUAACUAUACAACCUUGAUGGAGA [g10:g21:cont:t1A] | 0.000534 ± 0.0079

2 records drawn at random from those above, as already listed:
Row | Sequence | pre-steady-state target cleavage rate
6 | GGAGACCUUACUAUACAACCUACUACUCUCA | 0.0031 ± 0.0038
7 | GGAGUGGAUACUAUACAACCUUACUACCUCA | 0.00695 ± 0.0034

The list goes on:

Row | Sequence | pre-steady-state target cleavage rate
21 | GGAGACCUAUGAUUACUUGCUACUACCUCA | 0.000758 ± 0.0071
22 | GGAGACCAUACUAUACAACCAUGUACCUCA | 0.000177 ± 0.022
23 | GGAGUGCAUACUAUACAAGCUACUACCUCA | 0.00482 ± 0.002
24 | GGAGACCUUAGUAUACAACCUACUACGUCA | 0.00245 ± 0.0035
25 | GGAGACCAUACUAUACAAGGAUGAUGGAGA [g13:g23:cont:t1A] | 0.000368 ± 0.014
26 | GGAGACCUUACAAUACAACCUUCUACCUCA | 0.0017 ± 0.0053
27 | GGAGACCUAUGAUUAGAUCCUACUACCUCA | 0.000411 ± 0.005
28 | GGAGACGAUACUAUACAACCAACUUCCUCA | 0.00381 ± 0.0022
29 | GGAGACCUAUCUAUAGAACCUACUUCCUCA | 0.00116 ± 0.0058
30 | GGAGACCUAUCUAUACAACCUACUAGGACA | 0.000517 ± 0.0094
31 | GGAGACCUAUGAUAUGAUCCUACUACCUCA | 0.000685 ± 0.0057
32 | GGAGACCAUACUAUACAACCUACAUACCUCA | 0.00306 ± 0.0029
33 | GGAGACCUAACGAUACAACCUACUACCUCA | 0.0136 ± 0.0071
34 | GGAGCGGAUACUAUACAACCUACUACCUCA | 0.141 ± 0.048
35 | GGAGACCUAUGUAUACAACCUACUACCUCU [g2:g19:cont:t1U] | 0.404 ± 0.18
36 | GGAGACGAUAGUAUACAACCUACUAGCUCA | 0.00161 ± 0.0018
37 | GGAGACCUAUGAUAAAAACCUACUACCUCA | 0.000608 ± 0.01
38 | GGAGACCUAUGAAUACAACCUAGUAGCUCA | 0.00199 ± 0.0053
39 | GGAGACCUAUGAUUAGAACCUUCUACCUCA | 0.000183 ± 0.014
40 | GGAGACCUAUGAUAUGUACCUACUACCUCCA | 0.000193 ± 0.029
